# Experimental data published in the supplement of paper PMC8728848.
# The list shows a part of the results.
# B1: a L Fucosidase (Thermotoga maritima) (protein)
# chain: MASMKPRYKPDWESLREHTVPKWFDKAKFGIFIHWGIYSVPGWATPTGELGKVPMDAWFFQNPYAEWYENSLRIKESPTWEYHVKTYGENFEYEKFADLFTAEKWDPQEWADLFKKAGAKYVIPTTKHHDGFCLWGTKYTDFNSVKRGPKRDLVGDLAKAVREAGLRFGVYYSGGLDWRFTTEPIRYPEDLSYIRPNTYEYADYAYKQVMELVDLYLPDVLWNNMGWPEKGKEDLKYLFAYYYNKHPEGSVNDRWGVPHWDFKTAEYHVNYPGDLPGYKWEFTRGIGLSFGYNRNEGPEHMLSVEQLVYTLVDVVSKGGNLLLNVGPKGDGTIPDLQKERLLGLGEWLRKYGDAIYGTSVWERCCAKTEDGTEIRFTRKCNRIFVIFLGIPTGEKIVIEDLNLSAGTVRHFLTGERLSFKNVGKNLEITVPKKLLETDSITLVLEAVEE
# Key:
# Assay in all cases: glycan array binding signal (z-score within array); higher = stronger binding
# Settings in all cases: glycan notation: IUPAC condensed, linker removed; mutation: D224N
# [1] = target: Fuc(a1-2)Gal(b1-4)GlcNAc(b1-3)Gal(b1-4)GlcNAc(b1-2)Man(a1-3)[Fuc(a1-2)Gal(b1-4)GlcNAc(b1-3)Gal(b1-4)GlcNAc(b1-2)Man(a1-6)]Man(b1-4)GlcNAc(b1-4)GlcNAc
# Summary of the method: (§1)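 The binding signal is a Z-score computed within each array and averaged over linkers. Arrays of the same protein sequence at different concentrations or buffers were also averaged together. Data originate from 3228 arrays in the Consortium for Functional Glycomics database, kept only where the protein sequence was available.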
# [2] = target: Fuc(a1-2)Gal(b1-4)GlcNAc(b1-3)Gal(b1-4)GlcNAc(b1-3)Gal(b1-4)GlcNAc
# Summary of the method: as §1
# [3] = target: Fuc(a1-2)Gal(b1-4)GlcNAc(b1-3)GalNAc
# Summary of the method: as §1
# [4] = target: Fuc(a1-2)Gal(b1-4)GlcNAc(b1-3)[Fuc(a1-2)Gal(b1-4)GlcNAc(b1-6)]GalNAc
# Summary of the method: as §1
# [5] = target: Fuc(a1-2)Gal(b1-4)GlcNAc(b1-3)[Fuc(a1-3)[Gal(b1-4)]GlcNAc(b1-6)]Gal(b1-4)Glc
# Summary of the method: as §1
# [6] = target: Fuc(a1-2)Gal(b1-4)GlcNAc(b1-6)GalNAc
# Summary of the method: as §1
# [7] = target: Fuc(a1-2)Gal(b1-4)GlcNAc6S
# Summary of the method: as §1
# [8] = target: Fuc(a1-2)Gal(b1-4)[Fuc(a1-3)]GlcNAc
# Summary of the method: as §1
# [9] = target: Fuc(a1-2)Gal(b1-4)[Fuc(a1-3)]GlcNAc(b1-2)Man(a1-3)[Fuc(a1-2)Gal(b1-4)[Fuc(a1-3)]GlcNAc(b1-2)Man(a1-6)]Man(b1-4)GlcNAc(b1-4)[Fuc(a1-6)]GlcNAc
# Summary of the method: as §1
# [10] = target: Fuc(a1-2)Gal(b1-4)[Fuc(a1-3)]GlcNAc(b1-2)[Fuc(a1-2)Gal(b1-4)[Fuc(a1-3)]GlcNAc(b1-4)]Man(a1-3)[Fuc(a1-2)Gal(b1-4)[Fuc(a1-3)]GlcNAc(b1-2)Man(a1-6)]Man(b1-4)GlcNAc(b1-4)GlcNAc
# Summary of the method: as §1
# [11] = target: Fuc(a1-2)Gal(b1-4)[Fuc(a1-3)]GlcNAc(b1-3)Gal(b1-4)[Fuc(a1-3)]GlcNAc
# Summary of the method: as §1
# [12] = target: Fuc(a1-2)Gal(b1-4)[Fuc(a1-3)]GlcNAc(b1-3)Gal(b1-4)[Fuc(a1-3)]GlcNAc(b1-3)Gal(b1-4)[Fuc(a1-3)]GlcNAc
# Summary of the method: as §1
# [13] = target: Fuc(a1-2)Gal(b1-4)[Fuc(a1-3)]GlcNAc(b1-3)GalNAc
# Summary of the method: as §1
# [14] = target: Fuc(a1-2)Gal(b1-4)[Fuc(a1-3)]GlcNAc(b1-3)[Neu5Ac(a2-6)Gal(b1-4)GlcNAc(b1-6)]Gal(b1-4)Glc
# Summary of the method: as §1
# [15] = target: Fuc(a1-2)Gal3S(b1-4)GlcNAc
# Summary of the method: as §1
# [16] = target: Fuc(a1-2)Gal6S(b1-3)GlcNAc
# Summary of the method: as §1
# [17] = target: Fuc(a1-2)Gal6S(b1-3)GlcNAc6S
# Summary of the method: as §1
# [18] = target: Fuc(a1-2)Gal6S(b1-4)Glc
# Summary of the method: as §1
# [19] = target: Fuc(a1-2)Gal6S(b1-4)Glc6S
# Summary of the method: as §1
# [20] = target: Fuc(a1-2)[Gal(a1-3)]Gal
# Summary of the method: as §1
# [21] = target: Fuc(a1-2)[Gal(a1-3)]Gal(b1-3)GalNAc
# Summary of the method: as §1
# [22] = target: Fuc(a1-2)[Gal(a1-3)]Gal(b1-3)GalNAc(b1-3)Gal(a1-4)Gal(b1-4)Glc
# Summary of the method: as §1
# [23] = target: Fuc(a1-2)[Gal(a1-3)]Gal(b1-3)GlcNAc
# Summary of the method: as §1
# [24] = target: Fuc(a1-2)[Gal(a1-3)]Gal(b1-3)GlcNAc(b1-2)Man(a1-3)[Fuc(a1-2)[Gal(a1-3)]Gal(b1-3)GlcNAc(b1-2)Man(a1-6)]Man(b1-4)GlcNAc(b1-4)GlcNAc
# Summary of the method: as §1
# [25] = target: Fuc(a1-2)[Gal(a1-3)]Gal(b1-3)GlcNAc(b1-2)Man(a1-3)[Fuc(a1-2)[Gal(a1-3)]Gal(b1-3)GlcNAc(b1-2)Man(a1-6)]Man(b1-4)GlcNAc(b1-4)[Fuc(a1-6)]GlcNAc
# Summary of the method: as §1
# [26] = target: Fuc(a1-2)[Gal(a1-3)]Gal(b1-3)GlcNAc(b1-3)GalNAc
# Summary of the method: as §1
# [27] = target: Fuc(a1-2)[Gal(a1-3)]Gal(b1-3)GlcNAc(b1-6)GalNAc
# Summary of the method: as §1
# [28] = target: Fuc(a1-2)[Gal(a1-3)]Gal(b1-4)Glc
# Summary of the method: as §1
# [29] = target: Fuc(a1-2)[Gal(a1-3)]Gal(b1-4)GlcNAc
# Summary of the method: as §1
# [30] = target: Fuc(a1-2)[Gal(a1-3)]Gal(b1-4)GlcNAc(b1-2)Man
# Summary of the method: as §1
# [31] = target: Fuc(a1-2)[Gal(a1-3)]Gal(b1-4)GlcNAc(b1-2)Man(a1-3)[Fuc(a1-2)[Gal(a1-3)]Gal(b1-4)GlcNAc(b1-2)Man(a1-6)]Man(b1-4)GlcNAc(b1-4)GlcNAc
# Summary of the method: as §1
# [32] = target: Fuc(a1-2)[Gal(a1-3)]Gal(b1-4)GlcNAc(b1-2)Man(a1-3)[Fuc(a1-2)[Gal(a1-3)]Gal(b1-4)GlcNAc(b1-2)Man(a1-6)]Man(b1-4)GlcNAc(b1-4)[Fuc(a1-6)]GlcNAc
# Summary of the method: as §1
# [33] = target: Fuc(a1-2)[Gal(a1-3)]Gal(b1-4)GlcNAc(b1-3)GalNAc
# Summary of the method: as §1
# [34] = target: Fuc(a1-2)[Gal(a1-3)]Gal(b1-4)GlcNAc(b1-3)[Fuc(a1-2)[Gal(a1-3)]Gal(b1-4)GlcNAc(b1-6)]GalNAc
# Summary of the method: as §1
# [35] = target: Fuc(a1-2)[Gal(a1-3)]Gal(b1-4)GlcNAc(b1-6)GalNAc
# Summary of the method: as §1
# [36] = target: Fuc(a1-2)[Gal(a1-3)]Gal(b1-4)[Fuc(a1-3)]Glc
# Summary of the method: as §1
# [37] = target: Fuc(a1-2)[Gal(a1-3)]Gal(b1-4)[Fuc(a1-3)]GlcNAc
# Summary of the method: as §1
binder,measurement,setting,value
B1,glycan array binding signal (z-score),[1],-0.257
same,glycan array binding signal (z-score),[2],0.815
same,glycan array binding signal (z-score),[3],0.144
same,glycan array binding signal (z-score),[4],0.657
same,glycan array binding signal (z-score),[5],0.033
same,glycan array binding signal (z-score),[6],0.141
same,glycan array binding signal (z-score),[7],-0.796
same,glycan array binding signal (z-score),[8],0.313
same,glycan array binding signal (z-score),[9],0.012
same,glycan array binding signal (z-score),[10],0.291
same,glycan array binding signal (z-score),[11],-0.765
same,glycan array binding signal (z-score),[12],-0.246
same,glycan array binding signal (z-score),[13],0.407
same,glycan array binding signal (z-score),[14],-0.491
same,glycan array binding signal (z-score),[15],-0.491
same,glycan array binding signal (z-score),[16],-0.336
same,glycan array binding signal (z-score),[17],0.48
same,glycan array binding signal (z-score),[18],-0.936
same,glycan array binding signal (z-score),[19],-0.485
same,glycan array binding signal (z-score),[20],-0.439
same,glycan array binding signal (z-score),[21],-0.35
same,glycan array binding signal (z-score),[22],-0.757
same,glycan array binding signal (z-score),[23],-0.641
same,glycan array binding signal (z-score),[24],0.112
same,glycan array binding signal (z-score),[25],1.3
same,glycan array binding signal (z-score),[26],-0.656
same,glycan array binding signal (z-score),[27],0.367
same,glycan array binding signal (z-score),[28],0.011
same,glycan array binding signal (z-score),[29],-0.916
same,glycan array binding signal (z-score),[30],0.54
same,glycan array binding signal (z-score),[31],0.458
same,glycan array binding signal (z-score),[32],-0.853
same,glycan array binding signal (z-score),[33],-0.305
same,glycan array binding signal (z-score),[34],0.828
same,glycan array binding signal (z-score),[35],-0.437
same,glycan array binding signal (z-score),[36],-0.847
same,glycan array binding signal (z-score),[37],0.338

# Two entries drawn at random from the list so far, as already listed:
binder,measurement,setting,value
B1,glycan array binding signal (z-score),[7],-0.796
same,glycan array binding signal (z-score),[3],0.144
